The exact form of at least one protein or probe is not confirmed. Negatives hold for the conditions tested. A weaker result is weaker than the reference pair of the same experiment.
Test system: ParF (plasmid TP228 (segregation module))
Assay: fluorescence polarization
Details: 150 mM potassium glutamate (50-350 mM in salt series), pH 7.5, 5 mM magnesium acetate, 5 mM ATP or ADP, 25 C, 1 nM DNA, recombinant protein, label: 5' fluorescein

CAAGAAATAAACC (double strand) [13-mer]: binds more weakly (5 mM ATP, 5 mM Mg acetate, 150 mM K glutamate, loosely associated).
“AATTACTCAATTACTCAATT (double strand) [20-mer]”: no binding (5 mM ADP, 5 mM Mg acetate, 150 mM K glutamate); binds (5 mM ATP, 50 to <150 mM K glutamate, Kd in nanomolar range up to 150 mM); binds more weakly (5 mM ATP, >150 to 350 mM K glutamate, higher ionic strength inhibited binding).
“CAAGAAATAAACCAAAAATCGTAATCGAAAGATAAAAATCTG (double strand) [42-mer]”: binds (5 mM ATP, 5 mM Mg acetate, 150 mM K glutamate, avid binding).

Reference: publication PMC5389482
